Results published in article PMC5589800.
No constants are given. Whether binding was seen depends on the method and setting. Binding seen in cells or lysates may run through a third protein. Some binding calls cover weakened binding; strength is not graded here. Where a sequence is shown, tags or fusion partners need not be part of it.

By UniProt entry, the sequences of proteins in these tests, tags left out. Residues count along the entry.
UniProt P29317, residues 24-976: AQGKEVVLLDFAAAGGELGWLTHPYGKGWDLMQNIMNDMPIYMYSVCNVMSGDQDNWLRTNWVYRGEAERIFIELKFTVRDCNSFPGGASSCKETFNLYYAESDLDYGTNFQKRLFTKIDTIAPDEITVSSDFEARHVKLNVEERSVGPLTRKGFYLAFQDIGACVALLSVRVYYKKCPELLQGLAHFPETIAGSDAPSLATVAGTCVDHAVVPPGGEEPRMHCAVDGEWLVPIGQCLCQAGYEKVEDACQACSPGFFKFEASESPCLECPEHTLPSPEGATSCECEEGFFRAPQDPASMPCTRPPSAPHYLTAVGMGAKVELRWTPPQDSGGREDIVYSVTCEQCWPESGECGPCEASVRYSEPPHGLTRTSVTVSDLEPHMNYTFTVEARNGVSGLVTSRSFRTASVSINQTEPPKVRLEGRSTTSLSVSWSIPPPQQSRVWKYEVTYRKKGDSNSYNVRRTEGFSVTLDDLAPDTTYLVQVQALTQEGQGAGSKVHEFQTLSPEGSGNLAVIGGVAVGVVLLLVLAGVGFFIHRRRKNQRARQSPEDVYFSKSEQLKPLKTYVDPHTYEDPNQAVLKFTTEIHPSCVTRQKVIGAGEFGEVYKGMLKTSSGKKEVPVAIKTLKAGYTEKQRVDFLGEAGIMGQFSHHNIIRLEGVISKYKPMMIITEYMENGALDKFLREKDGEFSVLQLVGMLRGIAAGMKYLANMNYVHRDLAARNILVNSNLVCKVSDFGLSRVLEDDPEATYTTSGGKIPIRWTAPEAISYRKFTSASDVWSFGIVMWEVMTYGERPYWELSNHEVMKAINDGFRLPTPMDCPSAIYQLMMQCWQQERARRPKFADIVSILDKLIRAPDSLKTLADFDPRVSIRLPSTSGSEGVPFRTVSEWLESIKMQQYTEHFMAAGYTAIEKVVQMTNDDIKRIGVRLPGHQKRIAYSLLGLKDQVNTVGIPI

What was measured:
Assay in all cases: co-IP; Flag M2 magnetic beads from HeLa transiently transfected with Flag-SOCS2 constructs; 1 mM pervanadate for 30 min; endogenous EphA2 detected
FLAG-mSOCS2 ΔNT (mouse) = biological target: T1, FLAG-mSOCS2 ΔNT (mouse) (UniProt O35717)
T1 sequence: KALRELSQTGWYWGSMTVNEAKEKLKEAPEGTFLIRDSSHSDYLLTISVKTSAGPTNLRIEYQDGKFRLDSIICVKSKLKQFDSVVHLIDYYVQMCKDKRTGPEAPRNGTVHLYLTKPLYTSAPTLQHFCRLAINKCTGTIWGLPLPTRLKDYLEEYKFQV

FLAG-mSOCS2 R73K (mouse) = biological target: T2, FLAG-mSOCS2 R73K (mouse) (UniProt O35717)
T2 sequence: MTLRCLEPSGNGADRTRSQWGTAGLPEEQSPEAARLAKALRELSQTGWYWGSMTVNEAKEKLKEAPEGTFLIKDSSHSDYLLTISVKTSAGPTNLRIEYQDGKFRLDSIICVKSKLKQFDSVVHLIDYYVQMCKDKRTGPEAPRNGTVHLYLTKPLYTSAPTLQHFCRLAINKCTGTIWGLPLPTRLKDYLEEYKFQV

FLAG-mSOCS2 ΔSB (mouse) = biological target: T3, FLAG-mSOCS2 ΔSB (mouse) (UniProt O35717)
T3 sequence: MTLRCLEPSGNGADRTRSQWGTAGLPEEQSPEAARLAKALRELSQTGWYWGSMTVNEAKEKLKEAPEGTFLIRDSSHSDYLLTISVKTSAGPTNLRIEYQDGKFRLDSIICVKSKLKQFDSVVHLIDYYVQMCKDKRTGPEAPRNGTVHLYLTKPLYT

- binding (FLAG-mSOCS2 ΔNT (mouse)): binds
- binding (FLAG-mSOCS2 R73K (mouse)): no binding
- binding (FLAG-mSOCS2 ΔSB (mouse)): binds
Substance: ephrin type-A receptor 2 (EphA2), endogenous (from UniProt P29317 24-976)
